How the values were obtained:
[1] = tested on: tumor cells; experiment: Premature chromosome condensation (PCC) induction, cells not specified; type: cell-based; settings: co-treatment with Lasonolide A
Procedure: (§1) Burkitt's Lymphoma CA46 cells (500,000) (FIG. 1B) or breast cancer MDA-MB-231 cells (500,000) (FIG. 1A) were treated by 100 nM Lasonolide A (stock solution 100 μM in DMSO) for 1 h. Lymphocytes were treated with 200 nM Lasonolide A for 1 h. Cells were harvested with centrifuging on 2,000 rpm for 5 min at 4° C. Pellets were washed once by PBS and re-suspended in 1 mL PBS. 200 μL cells mixture were added to the chamber for cytospining. Cells were cytospun on 800 rpm for 10 min; slides were fixed in fresh-made 4% paraformaldehyde fixation for 20 min at room temperature, then moved to 70% ethanol for 20 min. Slides were stained with Propidium Iodide (“PI”) (20 μg/mL) and RNase A (100 μg/mL) for 15 min. Slides were washed with PBS for three times and mounted with Vectashield anti-fade mounting media (Vector Laboratories, Inc., Burlingame, Calif.). Images were taken using a Nikon Eclipse TE-300 confocal microscope.

[2] = tested on: Burkitt's Lymphoma CA46 cells; experiment: PCC induction and PI staining; type: cell-based, human; settings: co-treatment with Lasonolide A, CA 46 cells
Procedure: as §1

**Q.** `O=C(CCCCCCC(=O)Nc1ccccc1)NO` [SAHA, suberoylanilide hydroxamic acid, reference compound] was tested. Which “effect of the added inhibitor on PCC induction by Lasonolide A” value [1] did it give?
**A.** Its value is “could inhibit the Lasonolide A-induced PCC partly”.

**Q.** What about the “effect of the added inhibitor on PCC induction by Lasonolide A” value [2] of the same compound?
**A.** The value was “inhibited partially the PCC induction”.

— US8278100B2, “Lasonolide compounds as reagents for inducing premature chromosome condensation and methods for treating disorders” (The United States of America, as Represented by the …, priority 2008, dated 2012)
